The values that follow come from publication PMC7819943, “Rice protein-binding microarrays: a tool to detect cis-acting elements near promoter regions in rice”.

Chains of the proteins cited; added tags and fusions are not shown.
UniProt Q0JBA9, entry or part of it: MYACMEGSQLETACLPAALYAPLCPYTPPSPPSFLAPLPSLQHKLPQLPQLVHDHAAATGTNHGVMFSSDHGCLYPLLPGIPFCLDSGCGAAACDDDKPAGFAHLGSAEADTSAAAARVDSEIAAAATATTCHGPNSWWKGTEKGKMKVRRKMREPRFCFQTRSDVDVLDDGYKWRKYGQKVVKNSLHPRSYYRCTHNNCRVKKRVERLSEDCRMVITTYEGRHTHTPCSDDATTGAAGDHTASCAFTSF

This is one part of the list.

The experiment has as its target OsWRKY34 (Oryza sativa, UniProt Q0JBA9 1-250). Briefly: protein-binding microarray (RPBM); PBS, 2% BSA, 51.3 ng/ul salmon testes DNA, 50 uM zinc acetate, 200 nM TF, 25 C, 1 h; high values mean tight binding. The conditions noted are these: protein: recombinant; tags: N-terminal polyhistidine and DsRed monomer fusion (pET32a); label: CyDye5-dUTP incorporated in the synthesized complementary strand; 3' TTTTT single-stranded linker to array surface; dsDNA, one strand shown. In short, it runs like this:
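The binding signal is fluorescence intensity per feature, in arbitrary units, read on an Axon 4000B scanner. Polyhistidine- and DsRed-tagged transcription factors (N-terminal fusions) from E. coli BL21-CodonPlus were purified on Ni–NTA and applied at 200 nM for 1 h at 25 °C to a double-stranded, BSA-blocked custom Agilent array in buffer with 50 µM zinc acetate.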
As for “GACACATGACATTCTTCTCTCTTCTCTTTCGTTTTTCTCCCGGAGTCACCTAGTGCAG”, the binding signal is 15400 fluorescence intensity (a.u.). “CTCTTATTTTTGTGTATTATACACCTCTATTTTTTATATACGGAGTCACCTAGTGCAG”: the binding signal was 8080 fluorescence intensity (a.u.). The same measure for “CTTCCCGCCGCCGCCACTGCCACGAACAGTTCGCTCACCGCGGAGTCACCTAGTGCAG”: 9980 fluorescence intensity (a.u.); for “TTTTATGTTCGGTTTCTGTCGATTCTCAATTCCCGGTCTGCGGAGTCACCTAGTGCAG”: 8490 fluorescence intensity (a.u.); for “GACGACGCCATTCCTTATGTCCTATATAAAGGAGTCTAATCGGAGTCACCTAGTGCAG”: 8120 fluorescence intensity (a.u.).

As for “CGTAGGTAAGTAGGGTTATTATAGTTATTTGTGTATATATCGGAGTCACCTAGTGCAG”, the binding signal was 9300 fluorescence intensity (a.u.).

For the sequence “GCCTTTTTCACCTTGTTGCCTAAATTAGCTCTCCCCGCTCCGGAGTCACCTAGTGCAG”, the binding signal is 8080 fluorescence intensity (a.u.).

In the case of “CTCTTTCCCTATCCATCATACAACTACATTTATCTTTCTCCGGAGTCACCTAGTGCAG”, the binding signal is 8390 fluorescence intensity (a.u.). As for “CCACTCTTGTGCACGCCGCCGTATCTCACGCCCCTTCTTCCGGAGTCACCTAGTGCAG”, the binding signal is 12300 fluorescence intensity (a.u.). On to “GGTTGGGAAAAAATTGGGGTTGGTTTATTCTTCTTGTTGTCGGAGTCACCTAGTGCAG”, for which the binding signal was 15900 fluorescence intensity (a.u.). The same measure for “TATTTCCAGCACTGAAGACCATTGAAATGTTCCCCGTCAACGGAGTCACCTAGTGCAG”: 9090 fluorescence intensity (a.u.). Take “CGTCAATATCACCGATCACTTCCATTCGGCCATTTCCCACCGGAGTCACCTAGTGCAG”: the binding signal is 8120 fluorescence intensity (a.u.). The same measure for “GCGGGATCGCGCGGGCGGCGGCGGCGGCGGGGAGGGGATGCGGAGTCACCTAGTGCAG”: 16900 fluorescence intensity (a.u.); for “ATAGACTTATATCATTCCAATCGTTGTTACTAATATTTTTCGGAGTCACCTAGTGCAG”: 9820 fluorescence intensity (a.u.). As for “TACTTTATGTGTGACTAACTTTTTTTAATTTTCTCATAAACGGAGTCACCTAGTGCAG”, the binding signal is 8100 fluorescence intensity (a.u.). The same measure for “TAAATGTTTAACGTTGTTGACTTTTTTAAACATGTTTGACCGGAGTCACCTAGTGCAG”: 13500 fluorescence intensity (a.u.); for “TATTCTAATTTGTTGTATCATATCCCATTCCGATCGTTTACGGAGTCACCTAGTGCAG”: 9030 fluorescence intensity (a.u.). The same measure for “GTTTATTTCACCGTCCAACTGTTATAAGCTGTTCTCATATCGGAGTCACCTAGTGCAG”: 8070 fluorescence intensity (a.u.). The same measure for “CCCCTCAAACTTTTATATTTGTGACTATTGGATCGCCTTGCGGAGTCACCTAGTGCAG”: 8870 fluorescence intensity (a.u.).

Take “TTTTTTCTAATCCTACGTTTTTCCATTCCTGCGATTCAAACGGAGTCACCTAGTGCAG”: the binding signal is 8460 fluorescence intensity (a.u.).

As to “TTGGATCTTTTTTAGTGCAATTCGATCGAGTTTTTTTTTACGGAGTCACCTAGTGCAG”, the binding signal is 8410 fluorescence intensity (a.u.). Then “CCACAGCCCTACATCCCAAAACCTTGCGCCATTAGCTCGGCGGAGTCACCTAGTGCAG”, with 8210 fluorescence intensity (a.u.). Turning to “GATTTCTCTCTCTCTCTTCTTTTGCAGGGAACTTAATTACCGGAGTCACCTAGTGCAG”, the binding signal is 12500 fluorescence intensity (a.u.).

For “CGGATAAACCTCATCATCTCATCATCTTCCCCGCCTTAATCGGAGTCACCTAGTGCAG”, the binding signal was 9860 fluorescence intensity (a.u.). The same measure for “AAGACGAACGGTCAAATATGTGCTAAAAAGTCAACGGTGTCGGAGTCACCTAGTGCAG”: 9990 fluorescence intensity (a.u.). Then “GGCGAACCCTCCTCCCTCCGTTCCACACGCCCCAGTTCCCCGGAGTCACCTAGTGCAG”, with 9240 fluorescence intensity (a.u.); and “AGGGGATCTGCGGCGGCGGCGGCGGCGGGGTGGTCGAGCGCGGAGTCACCTAGTGCAG”, with 9580 fluorescence intensity (a.u.); and “ATTCTTTTGGTATTATAAACTCTGCATGGTATGTATAGGCCGGAGTCACCTAGTGCAG”, with 8220 fluorescence intensity (a.u.). On to “CTACTTGTGCTGTGTCTTTGTTTTTCTTTCACATTTCTAGCGGAGTCACCTAGTGCAG”, for which the binding signal was 14300 fluorescence intensity (a.u.).

For “CACTTGCCGCCACTGCCTTTCGCTGTATTTTGTTGGGATCCGGAGTCACCTAGTGCAG”, the binding signal is 12100 fluorescence intensity (a.u.).

With “CCCAAACCTTATCTCCTGGAGTAGTCACCTCCACGAACCCCGGAGTCACCTAGTGCAG”, the binding signal is 8040 fluorescence intensity (a.u.).

As for “TTGCCGTCGCCTCAACCACACCGACCAGCGTCACATCCAGCGGAGTCACCTAGTGCAG”, the binding signal was 8940 fluorescence intensity (a.u.). Then “GCTCTATCTTTACTCGCCATTTAATCGTTGCCTCGCGCTCCGGAGTCACCTAGTGCAG”, with 16900 fluorescence intensity (a.u.); and “ATCTACCACTATTTGAGATCATTTGGTTACGAAATCTTTTCGGAGTCACCTAGTGCAG”, with 8170 fluorescence intensity (a.u.); and “CACAGACTTCCTTGTTGATTCAAACAATACCGCACTTTCGCGGAGTCACCTAGTGCAG”, with 8530 fluorescence intensity (a.u.). The same measure for “TTAGGGGCGGTGGGTGGTTTTCGGCTGGGAAATCGCGGATCGGAGTCACCTAGTGCAG”: 11500 fluorescence intensity (a.u.); for “CCCACCCAGCCTACCACCTAACCACAACGATCCAACCATACGGAGTCACCTAGTGCAG”: 8760 fluorescence intensity (a.u.). The same measure for “CTTCTTTTTTTTTTCACCTTTTACATATCTGTCTTCGTCACGGAGTCACCTAGTGCAG”: 11400 fluorescence intensity (a.u.). For “TGTTGTTATAGCTAATTATTATTCATGCCACTTATTTTTTCGGAGTCACCTAGTGCAG”, the binding signal was 9950 fluorescence intensity (a.u.). Take “AAACCAACTTGCCATGCAACCTCTACGTATGTACACGCGTCGGAGTCACCTAGTGCAG”: the binding signal is 11400 fluorescence intensity (a.u.). Then “GTTTCTTTTCATACTTTGCTGCATCAATTGGTTTTGGCCTCGGAGTCACCTAGTGCAG”, with 8300 fluorescence intensity (a.u.).

For “ATCCCTCTGGTCGTCTCCTACCTCTCGGTTTCTTCACCCTCGGAGTCACCTAGTGCAG”, the binding signal was 14600 fluorescence intensity (a.u.).
